Some of the results follow. Residues, ends and D or L forms follow the SMILES beside them. *: point of attachment. Cbz = O=C(OCc1ccccc1)*
Legend:
Experiment in all cases: log2 fold change, soluble protein after heating vs DMSO (PISA); higher = thermal stabilisation; K562 cells, 10 uM, 30 min; active = over 0.2 and 3.5 SD of the protein, either way, in both replicates (recomputed)
erlotinib = compound: C#Cc1cccc(Nc2ncnc3cc(OCCOC)c(OCCOC)cc23)c1 [erlotinib]
Summary of the method: (§1)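 Aliquots of K562 cells (2×10^6 cells/mL) treated with 10 μM compound for 30 min were heated for 3 min over 48°C-58°C. After pooling and extraction in PBS with 0.5% NP-40 at 4°C, soluble protein from a 21,000xg, 90 min spin was quantified by TMTpro 16plex LC-MS/MS with channel sums equalised. Thermal stability is expressed against control samples, from duplicates, as a log2 fold change.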

Protein sequences, listed by entry. Tags and fused reporters are not part of them. Lines headed by an entry give the natural chain unless they say otherwise; changes in a name come on top.
UniProt P78356: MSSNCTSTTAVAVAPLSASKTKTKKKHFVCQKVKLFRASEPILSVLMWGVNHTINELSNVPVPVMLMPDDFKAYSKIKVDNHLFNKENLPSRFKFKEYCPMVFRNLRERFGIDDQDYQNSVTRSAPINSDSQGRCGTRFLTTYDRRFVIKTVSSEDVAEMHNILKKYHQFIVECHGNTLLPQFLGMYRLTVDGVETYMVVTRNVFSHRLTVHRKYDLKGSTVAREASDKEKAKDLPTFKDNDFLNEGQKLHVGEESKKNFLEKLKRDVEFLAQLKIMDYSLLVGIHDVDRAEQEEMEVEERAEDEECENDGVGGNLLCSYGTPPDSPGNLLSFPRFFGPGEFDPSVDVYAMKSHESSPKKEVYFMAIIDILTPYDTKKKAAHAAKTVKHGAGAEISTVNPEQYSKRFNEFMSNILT
UniProt Q15111: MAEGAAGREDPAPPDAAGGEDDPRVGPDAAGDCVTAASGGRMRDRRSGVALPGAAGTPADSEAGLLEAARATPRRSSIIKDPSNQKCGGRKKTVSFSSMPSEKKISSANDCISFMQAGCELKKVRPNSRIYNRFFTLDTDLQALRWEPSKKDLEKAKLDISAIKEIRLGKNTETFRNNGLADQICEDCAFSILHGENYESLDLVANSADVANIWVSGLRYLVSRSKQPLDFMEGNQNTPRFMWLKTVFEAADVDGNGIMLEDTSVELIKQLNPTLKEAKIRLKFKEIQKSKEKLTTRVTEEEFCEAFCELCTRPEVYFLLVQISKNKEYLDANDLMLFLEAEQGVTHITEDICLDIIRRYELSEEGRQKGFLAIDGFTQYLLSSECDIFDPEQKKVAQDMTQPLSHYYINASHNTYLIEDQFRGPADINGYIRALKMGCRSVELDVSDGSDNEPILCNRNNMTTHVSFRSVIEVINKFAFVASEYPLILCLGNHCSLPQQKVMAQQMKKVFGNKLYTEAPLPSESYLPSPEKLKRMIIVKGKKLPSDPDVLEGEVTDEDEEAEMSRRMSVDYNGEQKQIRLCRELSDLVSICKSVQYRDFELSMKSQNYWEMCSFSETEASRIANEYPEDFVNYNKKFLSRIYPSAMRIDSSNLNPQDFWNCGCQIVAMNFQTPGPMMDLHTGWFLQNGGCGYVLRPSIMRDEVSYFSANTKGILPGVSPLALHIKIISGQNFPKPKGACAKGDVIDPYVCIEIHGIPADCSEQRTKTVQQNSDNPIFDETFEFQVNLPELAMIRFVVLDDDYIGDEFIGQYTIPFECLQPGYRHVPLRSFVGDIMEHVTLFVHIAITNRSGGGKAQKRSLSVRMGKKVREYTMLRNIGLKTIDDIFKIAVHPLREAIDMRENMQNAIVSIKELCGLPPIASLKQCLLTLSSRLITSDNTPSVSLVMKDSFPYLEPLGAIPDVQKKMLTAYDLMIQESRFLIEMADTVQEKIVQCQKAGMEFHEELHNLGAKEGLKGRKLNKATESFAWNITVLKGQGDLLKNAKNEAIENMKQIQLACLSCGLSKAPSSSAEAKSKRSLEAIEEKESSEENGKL
UniProt Q9UBF8: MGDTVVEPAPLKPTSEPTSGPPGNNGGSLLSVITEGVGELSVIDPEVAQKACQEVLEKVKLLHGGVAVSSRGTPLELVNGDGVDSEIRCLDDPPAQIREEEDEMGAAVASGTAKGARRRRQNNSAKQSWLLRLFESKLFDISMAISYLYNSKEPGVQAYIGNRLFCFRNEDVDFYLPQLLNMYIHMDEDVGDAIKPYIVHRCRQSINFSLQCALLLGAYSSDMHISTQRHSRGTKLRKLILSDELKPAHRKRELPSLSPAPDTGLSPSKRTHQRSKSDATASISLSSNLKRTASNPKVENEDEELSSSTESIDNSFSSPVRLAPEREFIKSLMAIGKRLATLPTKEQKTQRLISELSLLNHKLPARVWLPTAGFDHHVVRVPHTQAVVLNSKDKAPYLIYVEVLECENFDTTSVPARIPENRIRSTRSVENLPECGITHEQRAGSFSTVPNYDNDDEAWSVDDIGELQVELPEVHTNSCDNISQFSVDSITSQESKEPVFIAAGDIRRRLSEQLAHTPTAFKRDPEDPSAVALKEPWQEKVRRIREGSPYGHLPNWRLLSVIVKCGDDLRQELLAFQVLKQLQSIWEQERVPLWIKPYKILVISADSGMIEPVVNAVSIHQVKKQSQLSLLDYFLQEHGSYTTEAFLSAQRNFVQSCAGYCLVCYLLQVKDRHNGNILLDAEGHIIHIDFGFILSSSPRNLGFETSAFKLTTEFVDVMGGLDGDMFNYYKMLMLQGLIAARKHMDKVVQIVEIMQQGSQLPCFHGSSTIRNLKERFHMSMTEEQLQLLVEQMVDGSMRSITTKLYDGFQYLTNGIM
UniProt Q6P4A8: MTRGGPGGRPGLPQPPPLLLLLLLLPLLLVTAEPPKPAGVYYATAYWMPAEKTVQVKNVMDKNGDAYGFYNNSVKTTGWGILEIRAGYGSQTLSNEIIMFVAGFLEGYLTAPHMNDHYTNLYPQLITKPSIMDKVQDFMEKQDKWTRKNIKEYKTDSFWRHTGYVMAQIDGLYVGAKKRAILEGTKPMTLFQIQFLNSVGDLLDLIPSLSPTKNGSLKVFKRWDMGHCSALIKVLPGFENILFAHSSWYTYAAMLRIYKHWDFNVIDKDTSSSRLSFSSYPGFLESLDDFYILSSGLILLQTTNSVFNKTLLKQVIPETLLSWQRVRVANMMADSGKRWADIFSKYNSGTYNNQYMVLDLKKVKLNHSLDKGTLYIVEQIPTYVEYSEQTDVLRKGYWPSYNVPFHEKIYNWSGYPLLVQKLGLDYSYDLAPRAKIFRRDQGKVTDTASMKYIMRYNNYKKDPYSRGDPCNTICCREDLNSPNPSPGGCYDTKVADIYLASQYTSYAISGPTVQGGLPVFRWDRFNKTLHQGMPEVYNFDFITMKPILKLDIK
UniProt Q9Y263: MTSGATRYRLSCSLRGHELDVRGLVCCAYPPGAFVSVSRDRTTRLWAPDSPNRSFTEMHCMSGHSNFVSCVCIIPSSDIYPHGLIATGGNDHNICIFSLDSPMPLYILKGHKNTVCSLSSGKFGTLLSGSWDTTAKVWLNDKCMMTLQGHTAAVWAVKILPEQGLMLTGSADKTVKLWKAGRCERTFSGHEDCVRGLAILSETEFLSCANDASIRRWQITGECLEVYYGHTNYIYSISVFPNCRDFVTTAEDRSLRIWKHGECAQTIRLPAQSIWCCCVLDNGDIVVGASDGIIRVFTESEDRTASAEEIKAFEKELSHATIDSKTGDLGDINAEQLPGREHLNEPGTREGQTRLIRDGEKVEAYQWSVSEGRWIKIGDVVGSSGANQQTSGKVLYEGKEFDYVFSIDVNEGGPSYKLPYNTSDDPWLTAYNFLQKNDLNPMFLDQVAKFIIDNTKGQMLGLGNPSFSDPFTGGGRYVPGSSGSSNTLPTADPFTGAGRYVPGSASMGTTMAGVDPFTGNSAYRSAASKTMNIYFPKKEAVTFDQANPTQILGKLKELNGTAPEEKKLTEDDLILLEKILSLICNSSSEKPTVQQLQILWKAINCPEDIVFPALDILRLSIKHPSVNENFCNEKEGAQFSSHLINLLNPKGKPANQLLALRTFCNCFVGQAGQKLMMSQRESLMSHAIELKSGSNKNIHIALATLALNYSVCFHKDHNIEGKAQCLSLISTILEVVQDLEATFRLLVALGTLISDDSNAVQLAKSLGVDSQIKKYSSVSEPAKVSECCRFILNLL
UniProt Q13608: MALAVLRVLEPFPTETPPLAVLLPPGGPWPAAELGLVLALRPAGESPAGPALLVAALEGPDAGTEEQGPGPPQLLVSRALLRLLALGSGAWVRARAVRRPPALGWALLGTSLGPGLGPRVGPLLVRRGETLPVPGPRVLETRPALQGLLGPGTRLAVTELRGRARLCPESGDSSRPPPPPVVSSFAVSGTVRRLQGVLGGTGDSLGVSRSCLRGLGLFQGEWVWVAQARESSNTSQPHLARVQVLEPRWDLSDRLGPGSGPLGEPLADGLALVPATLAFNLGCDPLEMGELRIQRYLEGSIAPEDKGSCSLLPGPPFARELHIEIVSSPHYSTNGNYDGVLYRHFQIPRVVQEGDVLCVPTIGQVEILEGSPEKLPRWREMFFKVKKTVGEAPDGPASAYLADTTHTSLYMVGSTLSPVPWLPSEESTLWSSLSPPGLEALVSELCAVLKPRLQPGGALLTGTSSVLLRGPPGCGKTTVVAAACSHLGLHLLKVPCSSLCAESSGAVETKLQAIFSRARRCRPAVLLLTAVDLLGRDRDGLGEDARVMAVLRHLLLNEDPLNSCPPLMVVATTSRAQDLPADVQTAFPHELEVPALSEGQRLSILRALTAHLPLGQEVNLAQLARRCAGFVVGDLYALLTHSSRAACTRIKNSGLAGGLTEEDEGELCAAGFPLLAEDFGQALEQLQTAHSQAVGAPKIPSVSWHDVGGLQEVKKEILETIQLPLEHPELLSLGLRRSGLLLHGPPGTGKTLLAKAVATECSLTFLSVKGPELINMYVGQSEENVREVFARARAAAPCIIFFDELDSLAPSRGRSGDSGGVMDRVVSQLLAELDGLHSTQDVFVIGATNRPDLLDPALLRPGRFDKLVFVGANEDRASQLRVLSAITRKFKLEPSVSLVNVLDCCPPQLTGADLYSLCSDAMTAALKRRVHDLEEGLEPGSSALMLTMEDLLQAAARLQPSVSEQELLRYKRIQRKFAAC
UniProt Q99623, whole entry, looked up: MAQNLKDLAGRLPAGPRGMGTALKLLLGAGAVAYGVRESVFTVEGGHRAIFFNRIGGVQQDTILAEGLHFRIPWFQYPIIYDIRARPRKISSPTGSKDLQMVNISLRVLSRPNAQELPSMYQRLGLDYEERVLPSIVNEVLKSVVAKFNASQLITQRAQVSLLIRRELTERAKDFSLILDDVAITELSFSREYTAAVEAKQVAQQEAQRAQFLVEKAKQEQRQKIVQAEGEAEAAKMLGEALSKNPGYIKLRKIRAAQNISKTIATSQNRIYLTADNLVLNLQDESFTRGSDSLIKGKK
UniProt Q13393: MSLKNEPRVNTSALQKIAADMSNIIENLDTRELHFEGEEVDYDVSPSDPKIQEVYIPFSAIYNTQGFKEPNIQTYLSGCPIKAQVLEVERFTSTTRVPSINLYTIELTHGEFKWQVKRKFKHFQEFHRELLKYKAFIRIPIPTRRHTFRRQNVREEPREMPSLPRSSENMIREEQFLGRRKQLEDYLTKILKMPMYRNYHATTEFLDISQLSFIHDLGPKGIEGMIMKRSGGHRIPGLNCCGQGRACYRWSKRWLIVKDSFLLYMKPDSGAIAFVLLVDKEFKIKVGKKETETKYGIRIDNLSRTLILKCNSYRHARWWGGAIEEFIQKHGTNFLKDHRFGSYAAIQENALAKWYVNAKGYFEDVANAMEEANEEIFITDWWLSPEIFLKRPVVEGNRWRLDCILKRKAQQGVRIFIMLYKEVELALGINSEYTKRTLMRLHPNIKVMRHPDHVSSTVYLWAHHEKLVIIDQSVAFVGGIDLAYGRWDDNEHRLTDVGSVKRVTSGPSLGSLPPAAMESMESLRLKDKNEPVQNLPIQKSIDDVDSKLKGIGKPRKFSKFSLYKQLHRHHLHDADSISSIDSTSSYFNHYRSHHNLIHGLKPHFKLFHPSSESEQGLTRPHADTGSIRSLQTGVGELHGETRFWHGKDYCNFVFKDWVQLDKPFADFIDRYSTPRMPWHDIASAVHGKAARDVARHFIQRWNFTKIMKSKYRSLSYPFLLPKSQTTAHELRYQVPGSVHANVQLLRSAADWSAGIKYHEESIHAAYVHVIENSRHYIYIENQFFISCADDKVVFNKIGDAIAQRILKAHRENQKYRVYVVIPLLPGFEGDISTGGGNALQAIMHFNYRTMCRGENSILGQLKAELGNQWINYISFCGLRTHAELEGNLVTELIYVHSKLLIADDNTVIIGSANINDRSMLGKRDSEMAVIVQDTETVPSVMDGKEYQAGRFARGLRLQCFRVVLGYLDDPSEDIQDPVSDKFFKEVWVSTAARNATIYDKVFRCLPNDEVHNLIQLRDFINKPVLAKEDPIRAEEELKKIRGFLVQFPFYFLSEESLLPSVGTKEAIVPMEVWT

[1] = compound: C/C(=N\NC(=O)C1=CC(=CC=C1)S(=O)(=O)N2CCOCC2)/C3=C(C=CC(=C3)Cl)O
Summary of the method: as §1

[2] = compound: C1=CC(=C(C=C1Cl)C2=NC3=NC=CN=C3C(=N2)NC4=CC=NC=C4)F
Summary of the method: as §1

[3] = compound: C1=CC(=CC=C1C2=NC3=C(N2)C=C(C=C3)C(=O)N)OC4=CC=C(C=C4)Cl
Summary of the method: as §1

[4] = compound: C1=CC2=C(C=CC(=C2)/C=C\3/C(=O)NC(=NCC4=CC=CS4)S3)N=C1
Summary of the method: as §1

[5] = compound: C1=CC2=NC=CN=C2C=C1/C=C/3\C(=O)NC(=O)S3
Summary of the method: as §1

[6] = compound: C1=CC=C(C=C1)C2=NC(=C(N2)C3=CC=NC=C3)C4=CC(=C(C=C4)Cl)O
Summary of the method: as §1

[7] = compound: C1=CC=C2C(=C1)C3=NNC4=CC=CC(=C43)C2=O
Summary of the method: as §1

[8] = compound: C1CCN(C1)C(=O)NC2=CC=CC(=C2)NC3=NC=C(C(=N3)NCCC4=CN=CN4)Br
Summary of the method: as §1

[9] = compound: C1CN(CCC1(CC2=CC=C(C=C2)Cl)N)C3=NC=NC4=C3C=CN4
Summary of the method: as §1

IRAK-1-4 Inhibitor I = compound: C1COCCN1CCN2C3=CC=CC=C3N=C2NC(=O)C4=CC(=CC=C4)[N+](=O)[O-] [IRAK-1-4 Inhibitor I]
Summary of the method: as §1

ibrutinib = compound: C=CC(=O)N1CCC[C@@H](n2nc(-c3ccc(Oc4ccccc4)cc3)c3c(N)ncnc32)C1 [ibrutinib]
Summary of the method: as §1

[10] = compound: CC(=O)c1cnc2ccc(-c3cc(Cl)c(O)c(Cl)c3)nc2c1N[C@H]1CC[C@H](CN(C)C)CC1
Summary of the method: as §1

ralimetinib = compound: CC(C)(C)Cn1c(N)nc2ccc(-c3[nH]c(C(C)(C)C)nc3-c3ccc(F)cc3)nc21 [ralimetinib]
Summary of the method: as §1

[11] = compound: CC(C)(O)CC(=O)NCCn1ccc2ncnc(Nc3ccc(Oc4cccc(C(F)(F)F)c4)c(Cl)c3)c21
Summary of the method: as §1

[12] = compound: CC(C)C1=C2N=C(C=C(N2N=C1)NCC3=CC=CC=C3)NCCCCCCN
Summary of the method: as §1

[13] = compound: CC(C)C[C@@H](C=O)NC(=O)[C@H](CC(C)C)NC(=O)[C@H](CC(C)C)NC(=O)OCc1ccccc1
Summary of the method: as §1

pinometostat = compound: CC(C)N(C[C@H]1O[C@@H](n2cnc3c(N)ncnc32)[C@H](O)[C@@H]1O)[C@H]1C[C@@H](CCc2nc3cc(C(C)(C)C)ccc3[nH]2)C1 [pinometostat]
Summary of the method: as §1

[14] = compound: CC1=C(C2=C(C=C1)C(=O)C3=CC=CC=C3N2CCCN)C
Summary of the method: as §1

[15] = compound: CC1=C(C(CC(=O)N1)C2=CC=C(C=C2)C(F)(F)F)C(=O)NC3=C(C=C4C(=C3)C=NN4)F
Summary of the method: as §1

| Target | log2 fold change (erlotinib) | log2 fold change [1] | log2 fold change [2] | log2 fold change [3] | log2 fold change [4] | log2 fold change [5] | log2 fold change [6] | log2 fold change [7] | log2 fold change [8] | log2 fold change [9] | log2 fold change (IRAK-1-4 Inhibitor I) | log2 fold change (ibrutinib) | log2 fold change [10] | log2 fold change (ralimetinib) | log2 fold change [11] | log2 fold change [12] | log2 fold change [13] | log2 fold change (pinometostat) | log2 fold change [14] | log2 fold change [15] |
| --- | --- | --- | --- | --- | --- | --- | --- | --- | --- | --- | --- | --- | --- | --- | --- | --- | --- | --- | --- | --- |
| PIP4K2B (UniProt P78356) | inactive: 0.16 | inactive: -0.022 | inactive: 0.082 | inactive: -0.083 | inactive: 0.017 | inactive: 0.244 | inactive: 0.104 | inactive: 0.096 | inactive: 0.13 | inactive: 0.037 | inactive: 0.254 | inactive: 0.01 | active: 0.856 | inactive: 0.005 | inactive: -0.149 | inactive: 0.033 | inactive: -0.034 | inactive: -0.014 | inactive: 0.065 | – |
| PLCL1 (UniProt Q15111) | inactive: 0.136 | inactive: -0.122 | inactive: 0.117 | inactive: 0.095 | inactive: -0.042 | inactive: 0.007 | inactive: 0.098 | inactive: 0.051 | inactive: 0 | inactive: -0.376 | inactive: -0.007 | inactive: 0.31 | inactive: 0.08 | inactive: 0.125 | inactive: -0.329 | inactive: -0.102 | inactive: 0.089 | inactive: 0.365 | inactive: -0.193 | – |
| PI4KB (UniProt Q9UBF8) | inactive: 0.02 | inactive: 0.009 | inactive: 0.07 | inactive: 0.025 | inactive: -0.013 | inactive: 0.035 | inactive: 0.003 | inactive: 0.054 | inactive: 0.011 | inactive: -0.016 | inactive: 0.061 | inactive: -0.052 | inactive: -0.007 | inactive: -0.095 | inactive: -0.111 | inactive: -0.098 | inactive: 0.033 | inactive: 0.004 | inactive: 0.07 | inactive: -0.009 |
| PLBD1 (UniProt Q6P4A8) | inactive: 0.05 | inactive: -0.008 | inactive: 0.024 | inactive: 0.037 | inactive: 0.09 | inactive: 0.024 | inactive: 0.036 | inactive: -0.01 | inactive: 0.037 | inactive: 0.009 | inactive: 0.033 | inactive: -0.002 | inactive: 0.025 | inactive: -0.077 | inactive: 0.036 | inactive: -0.012 | inactive: -0.015 | inactive: 0.057 | inactive: 0.02 | – |
| PLAA (UniProt Q9Y263) | inactive: 0.033 | inactive: 0.012 | inactive: 0 | inactive: 0.05 | inactive: -0.006 | inactive: -0.02 | inactive: 0.045 | inactive: -0.024 | inactive: -0.006 | inactive: -0.019 | inactive: -0.016 | inactive: -0.02 | inactive: 0.016 | inactive: 0.016 | inactive: -0.139 | inactive: -0.072 | inactive: 0.091 | inactive: 0.03 | inactive: 0.072 | inactive: -0.022 |
| PEX6 (UniProt Q13608) | inactive: 0.026 | inactive: 0.034 | inactive: -0.013 | inactive: 0.04 | inactive: 0.035 | inactive: 0.024 | inactive: -0.036 | inactive: 0 | inactive: -0.02 | inactive: 0.093 | inactive: -0.024 | inactive: -0.024 | inactive: -0.026 | inactive: -0.053 | inactive: -0.101 | inactive: 0.023 | inactive: 0.012 | inactive: -0.003 | inactive: 0.012 | inactive: -0.03 |
| PHB2 (UniProt Q99623) | inactive: -0.05 | inactive: -0.01 | inactive: 0.016 | inactive: 0.008 | inactive: -0.001 | inactive: 0.029 | inactive: -0.032 | inactive: 0.047 | inactive: 0.015 | inactive: 0.01 | inactive: -0.007 | inactive: -0.028 | inactive: 0.008 | inactive: -0.038 | inactive: -0.019 | inactive: -0.002 | inactive: -0.022 | inactive: -0.061 | inactive: -0.005 | inactive: 0.006 |
| PLD1 (UniProt Q13393) | inactive: -0.061 | inactive: -0.011 | inactive: -0.113 | inactive: 0.092 | inactive: 0.075 | inactive: 0.01 | inactive: 0.058 | inactive: -0.061 | inactive: -0.171 | inactive: -0.089 | inactive: -0.062 | inactive: -0.004 | inactive: -0.282 | inactive: 0.142 | inactive: 0.103 | inactive: -0.415 | inactive: 0.093 | inactive: 0.197 | inactive: 0.034 | inactive: 0.193 |

Source: the supplement of paper PMC10849652
